Where a name gives a salt, the structure may show the parent alone. The list shows a part of the results. Many values rest on one well or one pass, so single values are uncertain.
test system: patient-derived ovarian cancer cells (PDC); assay: cell growth inhibition ratio vs untreated control (CCK8); higher = stronger inhibition of cell viability; conditions: 10 µM; 48 h
Experimental: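 Natural product library (Topscience) screened at 10 µM final concentration for 48 h on ovarian cancer A2780 cells and patient-derived ovarian cancer cells (PDC) in 96-well plates; viability read by CCK8 and reported as inhibition ratio (%) relative to untreated control. Single-dose primary screen.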

SMILES	cell growth inhibition ratio [%]
CNC(=O)Oc1ccc2c(c1)[C@]1(C)CCN(C)[C@@H]1N2C [Physostigmine Salicylate]	-4.42
C[C@@]1(C(=O)O)CC[C@]2(C)CC[C@]3(C)C4=CC(=O)c5c(cc(O)c(O)c5C=O)[C@]4(C)CC[C@@]3(C)[C@@H]2C1 [Demethylzeylasteral]	-6.65
CC1=C(O)C(=O)C=C2C1=CC=C1[C@@]2(C)CC[C@@]2(C)[C@@H]3C[C@](C)(C(=O)O)CC[C@]3(C)CC[C@]12C [Celastrol]	-14.5
C1=C2CCCN[C@H]2[C@@H]2C[C@H]1[C@H]1CCCCN1C2 [Aloperine]	3.42
CCN1C[C@]2(COC)[C@H](O)C[C@H](OC)[C@@]34[C@@H]5C[C@@]6(O)[C@H](OC(=O)c7ccccc7)[C@@H]5[C@@](OC(C)=O)([C@@H]([C@H](OC)[C@H]23)[C@@H]14)[C@@H](O)[C@@H]6OC [Aconitine]	6.21
O=C1C[C@@H]2OCC=C3CN4CC[C@]56c7ccccc7N1[C@H]5[C@H]2[C@H]3C[C@H]46 [Strychnine Sulfate]	11
CC1C(=O)OC2C(O)C34C5OC(=O)C3(OC3OC(=O)C(O)C34C(C(C)(C)C)C5O)C12O (stereo not given) [Ginkgolide C]	5.69
C=C[C@H]1CN2CC[C@H]1C[C@@H]2[C@@H](O)c1ccnc2ccccc12 [Cinchonine]	-0.983
CC(C)c1ccc2c(c1O)CC[C@H]1C3=C(CC[C@]21C)C(=O)OC3 [Triptophenolide]	10.1
C[C@@H]1CC[C@@]2(OC1)O[C@H]1C[C@H]3[C@@H]4CC=C5C[C@@H](O[C@@H]6O[C@H](CO)[C@@H](O[C@@H]7O[C@@H](C)[C@H](O)[C@@H](O)[C@H]7O)[C@H](O)[C@H]6O[C@@H]6O[C@@H](C)[C@H](O)[C@@H](O)[C@H]6O)CC[C@]5(C)[C@H]4CC[C@]3(C)[C@H]1[C@@H]2C [Dioscin]	92.6

Ordered by formula weight (rising): part of the list above.
SMILES	cell growth inhibition ratio [%]
C1=C2CCCN[C@H]2[C@@H]2C[C@H]1[C@H]1CCCCN1C2 [Aloperine]	3.42
O=C1C[C@@H]2OCC=C3CN4CC[C@]56c7ccccc7N1[C@H]5[C@H]2[C@H]3C[C@H]46 [Strychnine Sulfate]	11
C[C@@]1(C(=O)O)CC[C@]2(C)CC[C@]3(C)C4=CC(=O)c5c(cc(O)c(O)c5C=O)[C@]4(C)CC[C@@]3(C)[C@@H]2C1 [Demethylzeylasteral]	-6.65
